The target in the test is Flag-CHIPΔTPR (TPR-deleted mutant) (not stated (plasmid from Korea Human Gene Bank)) (UniProt Q9UNE7). Put plainly: co-IP; HEK 293 cells, transfected tagged and/or endogenous proteins; high-salt lysis buffer (50 mM Tris/HCl pH 7.5, 1% Nonidet P-40, 300 mM NaCl, 150 mM KCl, 5 mM EDTA) diluted with lysis buffer without NaCl and KCl; antibodies and protein A-Sepharose overnight at 4 °C; in some panels cells treated with MG132 (5 uM, 10 h), siHSP70, siPARP1 or doxorubicin (2 ug/ml).

By UniProt entry, the sequences of proteins in these tests, tags left out. Where a name states a change or a piece, a line headed by the entry shows the natural chain unless it says otherwise.
UniProt Q9UNE7: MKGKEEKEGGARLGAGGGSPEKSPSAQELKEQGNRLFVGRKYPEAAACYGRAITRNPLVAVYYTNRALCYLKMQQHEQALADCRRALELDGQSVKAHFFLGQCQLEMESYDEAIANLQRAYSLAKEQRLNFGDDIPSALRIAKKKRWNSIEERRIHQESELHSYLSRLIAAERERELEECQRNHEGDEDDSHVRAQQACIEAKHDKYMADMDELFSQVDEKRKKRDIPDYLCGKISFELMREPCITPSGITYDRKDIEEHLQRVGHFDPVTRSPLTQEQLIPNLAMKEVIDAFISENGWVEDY
UniProt P09874: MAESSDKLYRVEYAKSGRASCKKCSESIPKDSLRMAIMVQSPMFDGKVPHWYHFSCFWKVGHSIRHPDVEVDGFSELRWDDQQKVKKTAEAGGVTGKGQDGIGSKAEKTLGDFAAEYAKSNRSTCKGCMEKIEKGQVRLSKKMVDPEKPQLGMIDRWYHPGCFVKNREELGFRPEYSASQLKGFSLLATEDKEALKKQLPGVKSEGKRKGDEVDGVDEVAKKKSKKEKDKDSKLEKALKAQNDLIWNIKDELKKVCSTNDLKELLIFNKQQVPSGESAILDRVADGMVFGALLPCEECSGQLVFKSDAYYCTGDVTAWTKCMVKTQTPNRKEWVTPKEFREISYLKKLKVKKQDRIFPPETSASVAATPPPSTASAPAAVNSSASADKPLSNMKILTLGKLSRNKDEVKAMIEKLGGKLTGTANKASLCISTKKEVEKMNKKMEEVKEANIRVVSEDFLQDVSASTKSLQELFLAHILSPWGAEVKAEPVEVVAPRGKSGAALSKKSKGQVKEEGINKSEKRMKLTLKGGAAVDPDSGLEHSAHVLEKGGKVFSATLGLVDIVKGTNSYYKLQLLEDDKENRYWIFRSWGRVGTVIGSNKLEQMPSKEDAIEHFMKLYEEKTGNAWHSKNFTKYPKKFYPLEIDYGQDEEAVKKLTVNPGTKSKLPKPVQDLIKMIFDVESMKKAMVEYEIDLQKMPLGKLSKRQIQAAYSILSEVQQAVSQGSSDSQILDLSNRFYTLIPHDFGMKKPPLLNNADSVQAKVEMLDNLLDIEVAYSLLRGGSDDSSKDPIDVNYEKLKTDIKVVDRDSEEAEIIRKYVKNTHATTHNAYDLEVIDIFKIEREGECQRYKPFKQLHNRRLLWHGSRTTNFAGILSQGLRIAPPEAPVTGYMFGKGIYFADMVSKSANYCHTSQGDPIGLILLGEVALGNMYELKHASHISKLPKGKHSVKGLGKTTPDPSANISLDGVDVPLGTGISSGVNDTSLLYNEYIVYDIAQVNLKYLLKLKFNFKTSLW

No constants are given. Whether binding was seen depends on the method and setting. In cells and extracts the contact can be indirect.

For one substance, binding results are on record in PMC5134000.

As to “endogenous PARP1 (poly(ADP-ribose) polymerase 1) (from UniProt P09874 1-1014) (enzyme)”, the binding result is “no binding”.
